Some of these results come from one statement about several compounds together.
Experiments:
Jurkat lymphocytes = test: Confocal laser scanning microscopy of living Jurkat lymphocytes treated with fluorescent probes; type: cell-based, human; conditions: compared among compounds 4-12
Protocol: FIG. 3 includes micrographs showing differential interference contrast (DIC) and confocal laser scanning microscopy of living Jurkat lymphocytes in media containing 10% serum treated at 37° C. with fluorescent compound 4 (Panels A-E), compound 6 (F-G), and compound 12 (H-I) for 5 min or 1 h (2 μM). In C and D, ezetimibe (compound 3, 100 μM in 0.1% DMSO) and cholesterol (compound 1, 200 μM in 10% DMSO) were included as competitors to block uptake via cell surface receptors.
An inverted Leica TCS SPE confocal laser-scanning microscope fitted with a Leica 63× oil-immersion objective was employed for imaging. Fluorescent probes were excited with a 488 nm solid-state laser and emitted photons were collected from 495-600 nm. Propidium iodide, used to counterstain dead cells red fluorescent, was excited with a 532 nm solid-state laser and emitted photons were collected from 650-800 nm. To image living cells, 50 μL of cells in media was pipetted to form a small droplet in the center of a coverslip fitted with a press-to-seal silicone isolator (Invitrogen). […] To allow accurate comparisons of differences in cellular fluorescence, laser power and PMT gain settings were identical for all samples.
Cells were suspended at 300,000 cells/mL in RPMI media containing 10% FBS. […] Samples were immediately analyzed by flow cytometry or confocal laser-scanning microscopy.

[1] = system: plasma membranes of living Jurkat lymphocytes; test: Saturation binding of fluorescent probes to living Jurkat lymphocytes (flow cytometry); parameters: species or system human; conditions: 10% serum; for inhibition of binding to cell surfaces upon coaddition with excess ezetimibe: ezetimibe 100 μM as competitor; for inhibition of binding to cell surfaces upon coaddition with free cholesterol: free cholesterol 200 μM as competitor
Protocol: Jurkat lymphocytes (human acute leukemia, ATCC #TIB-152) were cultivated in Roswell Park Memorial Institute (RPMI) 1640 medium supplemented with Fetal Bovine Serum (FBS, 10%), penicillin (100 units/mL), and streptomycin (100 μg/mL) in a humidified 5% CO2 incubator at 37° C. Media used for cell culture and all wash steps contained antibiotics and 10% FBS unless otherwise noted.
Cells were suspended at 300,000 cells/mL in RPMI media containing 10% FBS. Ezetimibe (100 μM; diluted 1:1000 into media from a 100 mM stock in DMSO; 0.1% final DMSO concentration), free cholesterol (200 μM; diluted 1:10 into media from a 2 mM stock in DMSO; 10% final DMSO concentration to enhance cholesterol solubility) or vehicle control (DMSO) was added in competition experiments. Cell suspensions containing the competitor or vehicle control were prepared as 1 mL aliquots in 1.5 mL eppindorf tubes. Fluorescent probes were added at concentrations from 0 nM to 2500 nM (diluted 1:1000 into media from stocks in DMSO). Once the probe was added and well mixed, the samples were split into three tubes each containing 330 μL. Cells were incubated at 16° C. for 10 min or 37° C. for 5 minutes to limit endocytosis. After this incubation, the samples were washed once with RPMI 1640 containing 0.5% FBS (to minimize efflux of the probe from the cell surface) and propidium iodide (3 μM). Samples were immediately analyzed by flow cytometry or confocal laser-scanning microscopy.
Populations of 10,000 Jurkat cells were analyzed for each sample using an Accuri C6 flow cytometer equipped with 488 nm and 640 nm solid-state lasers. Live cells were gated using both forward scattering (FSC) and side scattering (SSC) dot plots to identify cellular physical properties of size and granularity and propidium iodide to identify cells with compromised membranes. The average cellular fluorescence upon excitation at 488 nm was plotted against probe concentration, and the data analyzed as total binding (no competitor added) and a linear non-specific binding component (with cholesterol or ezetimibe as a specific competitor) to calculate specific binding curves. Using GraphPad Prism 5.0 software, these curves were analyzed with a one site with hill slope binding model to determine the relative apparent Kd and Bmax values listed in Table 1 below.
Using free cholesterol (compound 1, 200 μM, 10% DMSO) as a competitor, we quantified the relative affinities (Kd, app) and efficacies (Bmax) of compounds 4-12 in saturation binding experiments at both 16° C. (to limit endocytosis) and 37° C. (FIG. 4 and Table 1). […]

Cc1cc(C(=O)N[C@@H](CCC(=O)O)C(=O)NCCC(=O)NCCCN[C@H]2CC[C@@]3(C)C(=CC[C@H]4[C@@H]5CC[C@H]([C@H](C)CCCC(C)C)[C@@]5(C)CC[C@@H]43)C2)ccc1-c1c2cc(F)c(=O)cc-2oc2cc(O)c(F)cc12 [compound 4, (4S)-5-{[3-({3-[3β-Cholest-5-en-3-ylamino]propyl}amino)-3-oxopropyl]amino}-4-{[4-(2,7-difluoro-6-hydroxy-3-oxo-3H-xanthen-9-yl)-3-methylbenzoyl]amino}-5-oxopentanoic acid]
entering cells (in words) (Jurkat lymphocytes): superior in entering cells
inhibition of binding to cell surfaces upon coaddition with excess ezetimibe [1]: > 50%
inhibition of binding to cell surfaces upon coaddition with free cholesterol [1]: > 50%

Cc1cc(C(=O)N[C@@H](CCC(=O)O)C(=O)N[C@@H](CCC(=O)O)C(=O)NCCC(=O)NCCCN[C@H]2CC[C@@]3(C)C(=CC[C@H]4[C@@H]5CC[C@H]([C@H](C)CCCC(C)C)[C@@]5(C)CC[C@@H]43)C2)ccc1-c1c2cc(F)c(=O)cc-2oc2cc(O)c(F)cc12 [compound 5, (4S)-5-{[(1S)-3-Carboxy-1-({[3-({3-[3β-cholest-5-en-3-ylamino]propyl}amino)-3-oxopropyl]amino}carbonyl)propyl]amino}-4-{[4-(2,7-difluoro-6-hydroxy-3-oxo-3H-xanthen-9-yl)-3-methylbenzoyl]amino}-5-oxopentanoic acid]
entering cells (in words) (Jurkat lymphocytes): superior in entering cells
inhibition of binding to cell surfaces upon coaddition with excess ezetimibe [1]: > 50%
inhibition of binding to cell surfaces upon coaddition with free cholesterol [1]: > 50%

Source: patent US8637468B2, “Synthetic cholesterylamine-linker derivatives for agent delivery into cells” (The University of Kansas, priority 2009, dated 2014)
